# Laboratory results reported in publication PMC8760370, “Combinatorial inhibition of BTK, PI3K-AKT and BRD4-MYC as a strategy for treatment of mantle cell lymphoma” (Molecular Biomedicine, 2022).
# The structures given here were assigned with low confidence; some may be wrong.
# System: BTK and AKT phosphorylation
# Assay: Inhibitor washout assay, Mino cells
# Conditions: 1 h treatment, washes with PBS
smiles,measurement,value
C=CC(=O)N1CCOc2ccc(-c3csc4c(=O)cc(N5CCOCC5)oc34)cc21,AKT phosphorylation after inhibitor wash out,retained inhibition of AKT phosphorylation
same,BTK phosphorylation after inhibitor wash out,retained inhibition of BTK phosphorylation
